# Values quoted from earlier work as cited in patent US20060276549A1, “Combination and use of drugs” (priority 2005, published 2006).
# Some entries share one result that the patent states for a list of compounds. Some compounds share one range, which may span the group rather than tell each member.
# Conditions: monotherapy, literature studies; cited from earlier work
row,SMILES,weight loss of body weight for drug compared to placebo
1,"CC(C)CC(N(C)C)C1(c2ccc(Cl)cc2)CCC1 (stereo not drawn) [sibutramine, N,N-dimethyl-1-[1-(4-chlorophenyl)cyclobutyl]-3-methylbutylamine]",5%-10%
2,CC(C)(N)Cc1ccccc1 [phentermine],5%-10%
3,CCN[C@@H](C)Cc1cccc(C(F)(F)F)c1 [dexfenfluramine],5%-10%
